Reference: the supplement of paper PMC10849652
The other results are listed elsewhere or left out.

Protein sequences, listed by entry. Tags and fused reporters are not part of them. Lines headed by an entry give the natural chain unless they say otherwise; changes in a name come on top.
UniProt Q13409, whole entry, looked up: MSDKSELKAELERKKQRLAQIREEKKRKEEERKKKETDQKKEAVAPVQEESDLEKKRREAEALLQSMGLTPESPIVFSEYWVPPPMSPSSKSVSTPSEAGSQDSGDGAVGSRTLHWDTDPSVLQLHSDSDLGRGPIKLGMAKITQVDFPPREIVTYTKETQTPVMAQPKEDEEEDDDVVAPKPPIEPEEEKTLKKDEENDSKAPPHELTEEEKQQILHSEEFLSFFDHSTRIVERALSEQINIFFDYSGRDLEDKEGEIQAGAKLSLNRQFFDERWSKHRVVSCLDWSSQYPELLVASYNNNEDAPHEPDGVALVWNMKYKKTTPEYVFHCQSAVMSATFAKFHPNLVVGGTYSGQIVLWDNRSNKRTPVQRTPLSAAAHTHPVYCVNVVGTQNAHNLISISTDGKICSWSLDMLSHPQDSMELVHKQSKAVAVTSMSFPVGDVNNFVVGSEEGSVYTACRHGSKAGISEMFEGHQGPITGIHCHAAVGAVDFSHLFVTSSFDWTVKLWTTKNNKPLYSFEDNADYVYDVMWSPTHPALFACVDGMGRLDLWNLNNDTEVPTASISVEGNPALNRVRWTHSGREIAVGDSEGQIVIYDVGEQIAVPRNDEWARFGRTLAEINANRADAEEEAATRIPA
UniProt Q9UBS4: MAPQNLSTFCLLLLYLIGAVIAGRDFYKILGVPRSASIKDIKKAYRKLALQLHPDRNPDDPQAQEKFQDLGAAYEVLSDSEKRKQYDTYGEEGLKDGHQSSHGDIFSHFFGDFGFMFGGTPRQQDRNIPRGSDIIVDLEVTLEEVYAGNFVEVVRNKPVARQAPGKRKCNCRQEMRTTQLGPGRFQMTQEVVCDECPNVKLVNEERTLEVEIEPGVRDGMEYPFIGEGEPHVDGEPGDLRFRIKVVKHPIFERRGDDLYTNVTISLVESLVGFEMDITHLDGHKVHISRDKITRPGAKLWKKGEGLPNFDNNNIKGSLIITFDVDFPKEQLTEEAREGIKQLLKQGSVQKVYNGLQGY
UniProt Q14919: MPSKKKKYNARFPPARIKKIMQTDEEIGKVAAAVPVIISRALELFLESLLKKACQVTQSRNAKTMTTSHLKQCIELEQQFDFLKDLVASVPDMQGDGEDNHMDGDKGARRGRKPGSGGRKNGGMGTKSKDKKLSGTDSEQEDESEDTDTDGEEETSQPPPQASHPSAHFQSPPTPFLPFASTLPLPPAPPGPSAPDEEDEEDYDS
UniProt Q96F86: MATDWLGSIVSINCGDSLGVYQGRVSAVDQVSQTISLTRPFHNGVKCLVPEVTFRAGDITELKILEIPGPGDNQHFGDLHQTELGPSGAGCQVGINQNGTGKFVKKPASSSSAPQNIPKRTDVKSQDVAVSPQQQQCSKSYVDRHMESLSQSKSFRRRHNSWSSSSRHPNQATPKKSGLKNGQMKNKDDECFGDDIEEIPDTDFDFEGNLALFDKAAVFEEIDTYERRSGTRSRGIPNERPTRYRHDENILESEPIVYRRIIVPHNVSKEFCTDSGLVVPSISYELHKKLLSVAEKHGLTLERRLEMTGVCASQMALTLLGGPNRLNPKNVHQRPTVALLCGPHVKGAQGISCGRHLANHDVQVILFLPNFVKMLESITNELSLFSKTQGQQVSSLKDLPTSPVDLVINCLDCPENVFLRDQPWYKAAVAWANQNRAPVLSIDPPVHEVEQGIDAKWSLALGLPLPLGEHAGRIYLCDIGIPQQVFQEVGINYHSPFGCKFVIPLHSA
UniProt Q96KC8: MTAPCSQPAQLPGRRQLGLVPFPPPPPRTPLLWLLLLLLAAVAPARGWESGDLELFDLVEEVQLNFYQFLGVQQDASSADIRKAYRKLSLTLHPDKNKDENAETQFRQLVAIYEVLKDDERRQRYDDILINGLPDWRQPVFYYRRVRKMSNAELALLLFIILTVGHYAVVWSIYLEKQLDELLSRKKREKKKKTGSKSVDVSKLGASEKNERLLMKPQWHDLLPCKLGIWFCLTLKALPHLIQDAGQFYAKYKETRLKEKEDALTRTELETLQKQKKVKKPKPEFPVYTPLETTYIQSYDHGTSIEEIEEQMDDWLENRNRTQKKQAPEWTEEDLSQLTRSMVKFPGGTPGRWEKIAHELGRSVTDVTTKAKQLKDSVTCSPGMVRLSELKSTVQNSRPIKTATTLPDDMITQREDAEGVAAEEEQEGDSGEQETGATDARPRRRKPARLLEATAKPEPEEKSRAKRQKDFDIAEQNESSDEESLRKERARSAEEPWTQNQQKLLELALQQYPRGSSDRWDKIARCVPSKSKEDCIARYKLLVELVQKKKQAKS
UniProt Q8NBA8: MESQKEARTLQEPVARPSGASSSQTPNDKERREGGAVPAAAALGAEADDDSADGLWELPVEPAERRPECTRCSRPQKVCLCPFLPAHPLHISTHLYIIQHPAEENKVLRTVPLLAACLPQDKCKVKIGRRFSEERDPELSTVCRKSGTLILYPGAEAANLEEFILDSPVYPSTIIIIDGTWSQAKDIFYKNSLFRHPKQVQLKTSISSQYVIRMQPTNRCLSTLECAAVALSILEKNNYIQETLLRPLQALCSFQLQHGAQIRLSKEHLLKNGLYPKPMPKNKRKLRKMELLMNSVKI
UniProt Q01658: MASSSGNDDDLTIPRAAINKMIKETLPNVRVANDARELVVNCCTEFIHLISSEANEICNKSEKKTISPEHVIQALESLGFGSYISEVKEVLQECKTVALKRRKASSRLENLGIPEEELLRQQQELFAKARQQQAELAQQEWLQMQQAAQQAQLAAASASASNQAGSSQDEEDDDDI
UniProt P55039: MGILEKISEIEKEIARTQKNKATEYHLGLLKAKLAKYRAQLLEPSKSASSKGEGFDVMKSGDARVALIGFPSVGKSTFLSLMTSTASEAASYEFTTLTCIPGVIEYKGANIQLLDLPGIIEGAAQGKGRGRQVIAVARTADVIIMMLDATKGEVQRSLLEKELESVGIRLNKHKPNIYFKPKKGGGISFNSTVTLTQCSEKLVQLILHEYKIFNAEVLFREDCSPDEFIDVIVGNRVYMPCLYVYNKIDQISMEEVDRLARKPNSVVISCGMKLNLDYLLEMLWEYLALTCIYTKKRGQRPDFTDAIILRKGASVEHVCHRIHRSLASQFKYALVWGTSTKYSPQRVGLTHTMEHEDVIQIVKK
UniProt O75521: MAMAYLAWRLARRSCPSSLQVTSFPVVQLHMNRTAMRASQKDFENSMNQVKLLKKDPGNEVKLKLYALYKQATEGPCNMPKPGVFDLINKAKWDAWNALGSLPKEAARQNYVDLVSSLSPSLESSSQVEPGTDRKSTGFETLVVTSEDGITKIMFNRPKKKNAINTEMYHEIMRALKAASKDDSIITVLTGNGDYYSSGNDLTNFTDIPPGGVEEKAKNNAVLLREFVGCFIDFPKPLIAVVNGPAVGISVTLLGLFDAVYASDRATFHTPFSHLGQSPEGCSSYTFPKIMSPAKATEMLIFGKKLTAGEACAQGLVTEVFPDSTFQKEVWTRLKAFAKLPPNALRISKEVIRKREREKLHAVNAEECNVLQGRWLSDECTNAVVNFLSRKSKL
UniProt Q15075: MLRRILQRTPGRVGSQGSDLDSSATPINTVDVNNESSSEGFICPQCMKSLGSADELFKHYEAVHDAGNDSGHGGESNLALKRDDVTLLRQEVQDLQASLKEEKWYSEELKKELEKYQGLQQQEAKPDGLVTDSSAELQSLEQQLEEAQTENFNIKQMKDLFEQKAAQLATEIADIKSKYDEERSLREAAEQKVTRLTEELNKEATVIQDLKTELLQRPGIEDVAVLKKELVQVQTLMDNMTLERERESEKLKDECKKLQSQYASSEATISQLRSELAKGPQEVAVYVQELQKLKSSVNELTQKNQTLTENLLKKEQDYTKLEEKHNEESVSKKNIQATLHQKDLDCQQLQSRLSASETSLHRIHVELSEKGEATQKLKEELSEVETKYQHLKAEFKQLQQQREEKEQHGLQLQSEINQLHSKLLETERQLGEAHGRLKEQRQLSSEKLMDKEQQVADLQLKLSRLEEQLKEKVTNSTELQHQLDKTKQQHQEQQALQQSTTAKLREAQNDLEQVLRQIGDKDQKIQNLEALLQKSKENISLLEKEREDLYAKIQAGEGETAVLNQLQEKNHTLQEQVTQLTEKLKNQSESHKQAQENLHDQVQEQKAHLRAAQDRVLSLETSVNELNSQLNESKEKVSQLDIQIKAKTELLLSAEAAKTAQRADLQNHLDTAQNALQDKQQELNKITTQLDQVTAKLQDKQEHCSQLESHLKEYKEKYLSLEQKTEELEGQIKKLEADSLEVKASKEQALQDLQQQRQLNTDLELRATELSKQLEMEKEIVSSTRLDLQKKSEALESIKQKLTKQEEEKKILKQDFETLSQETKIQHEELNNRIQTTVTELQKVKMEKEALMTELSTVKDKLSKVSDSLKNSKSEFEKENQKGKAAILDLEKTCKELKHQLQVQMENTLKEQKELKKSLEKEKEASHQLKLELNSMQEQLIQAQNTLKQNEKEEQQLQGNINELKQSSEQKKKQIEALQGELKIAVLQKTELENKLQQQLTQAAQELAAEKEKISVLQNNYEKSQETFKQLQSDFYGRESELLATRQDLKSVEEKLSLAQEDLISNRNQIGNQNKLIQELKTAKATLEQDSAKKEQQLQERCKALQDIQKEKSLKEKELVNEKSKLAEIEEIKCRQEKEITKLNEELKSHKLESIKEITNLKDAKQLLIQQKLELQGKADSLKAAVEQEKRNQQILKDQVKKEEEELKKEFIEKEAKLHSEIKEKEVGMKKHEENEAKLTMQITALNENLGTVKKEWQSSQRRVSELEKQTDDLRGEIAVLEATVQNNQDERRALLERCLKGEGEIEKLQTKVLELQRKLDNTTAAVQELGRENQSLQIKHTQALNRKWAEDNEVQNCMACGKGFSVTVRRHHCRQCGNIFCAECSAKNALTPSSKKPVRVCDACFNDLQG
UniProt Q96G46: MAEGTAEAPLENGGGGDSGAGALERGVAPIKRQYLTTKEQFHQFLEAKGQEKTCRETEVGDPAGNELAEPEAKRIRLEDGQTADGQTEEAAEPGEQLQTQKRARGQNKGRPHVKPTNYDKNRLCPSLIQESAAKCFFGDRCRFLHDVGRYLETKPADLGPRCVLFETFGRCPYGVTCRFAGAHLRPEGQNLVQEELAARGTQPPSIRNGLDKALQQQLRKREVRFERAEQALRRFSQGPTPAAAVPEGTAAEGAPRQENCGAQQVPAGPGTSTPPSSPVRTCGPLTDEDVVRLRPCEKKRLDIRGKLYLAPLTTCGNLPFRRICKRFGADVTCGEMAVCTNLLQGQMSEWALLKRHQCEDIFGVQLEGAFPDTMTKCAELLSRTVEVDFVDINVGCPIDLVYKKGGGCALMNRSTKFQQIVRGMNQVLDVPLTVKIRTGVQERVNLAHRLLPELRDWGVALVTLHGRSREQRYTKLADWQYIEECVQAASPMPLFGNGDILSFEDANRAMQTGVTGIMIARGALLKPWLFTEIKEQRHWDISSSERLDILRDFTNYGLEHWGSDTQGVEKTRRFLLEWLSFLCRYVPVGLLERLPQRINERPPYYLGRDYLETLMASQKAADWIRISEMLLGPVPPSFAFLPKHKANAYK
UniProt P25685, whole entry, looked up: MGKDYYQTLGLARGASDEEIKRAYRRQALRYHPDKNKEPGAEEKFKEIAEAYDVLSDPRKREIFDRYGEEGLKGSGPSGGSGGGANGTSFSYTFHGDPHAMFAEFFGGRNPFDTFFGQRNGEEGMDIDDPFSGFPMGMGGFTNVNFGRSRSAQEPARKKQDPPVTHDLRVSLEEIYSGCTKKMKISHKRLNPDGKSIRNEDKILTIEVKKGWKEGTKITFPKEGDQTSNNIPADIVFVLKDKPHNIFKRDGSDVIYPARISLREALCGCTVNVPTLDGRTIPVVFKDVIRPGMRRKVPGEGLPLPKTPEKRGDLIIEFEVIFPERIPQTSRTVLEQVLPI
UniProt Q8TEA8: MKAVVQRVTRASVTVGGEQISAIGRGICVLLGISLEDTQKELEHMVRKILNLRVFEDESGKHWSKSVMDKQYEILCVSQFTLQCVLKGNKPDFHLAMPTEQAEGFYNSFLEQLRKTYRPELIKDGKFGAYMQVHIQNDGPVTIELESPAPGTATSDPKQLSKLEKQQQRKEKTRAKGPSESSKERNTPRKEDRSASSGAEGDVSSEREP
UniProt Q9NXW2: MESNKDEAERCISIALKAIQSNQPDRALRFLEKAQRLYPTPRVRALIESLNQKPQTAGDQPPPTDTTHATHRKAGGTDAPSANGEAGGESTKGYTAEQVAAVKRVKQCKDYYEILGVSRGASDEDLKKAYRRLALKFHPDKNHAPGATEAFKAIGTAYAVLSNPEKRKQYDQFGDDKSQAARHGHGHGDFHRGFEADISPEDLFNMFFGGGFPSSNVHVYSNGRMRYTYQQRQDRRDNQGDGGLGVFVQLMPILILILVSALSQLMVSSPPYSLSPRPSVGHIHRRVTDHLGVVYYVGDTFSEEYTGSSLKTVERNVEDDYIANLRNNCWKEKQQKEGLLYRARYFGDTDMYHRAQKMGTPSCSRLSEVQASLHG

What was measured:
Assay in all cases: log2 fold change, soluble protein after heating vs DMSO (PISA); higher = thermal stabilisation; K562 cells, 10 uM, 30 min; active = over 0.2 and 3.5 SD of the protein, either way, in both replicates (recomputed)
[1] = compound: COC1=CC=C(C=C1)CN2C=CC3=C2C=C(C=C3)C(=O)NO
Procedure, shortened: (§1)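 K562 cells at 2×10^6 cells/mL were exposed to 10 μM compound for 30 min, then aliquots were heated for 3 min across 48°C-58°C, pooled, and extracted in PBS containing 0.5% NP-40 at 4°C. The supernatant after 21,000xg for 90 min was taken as soluble protein and measured by TMTpro 16plex LC-MS/MS with channel sums equalised. Thermal stability is reported relative to control samples, with values from duplicates. Fold changes are given on a log2 scale.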

filanesib = compound: CON(C)C(=O)N1N=C(c2cc(F)ccc2F)S[C@@]1(CCCN)c1ccccc1 [filanesib]
Procedure, shortened: as §1

zotarolimus = compound: CO[C@H]1C[C@@H]2CC[C@@H](C)[C@@](O)(O2)C(=O)C(=O)N2CCCC[C@H]2C(=O)O[C@H]([C@H](C)C[C@@H]2CC[C@H](n3cnnn3)[C@H](OC)C2)CC(=O)[C@H](C)/C=C(\C)[C@@H](O)[C@@H](OC)C(=O)[C@H](C)C[C@H](C)/C=C/C=C/C=C/1C [zotarolimus]
Procedure, shortened: as §1

idasanutlin = compound: COc1cc(C(=O)O)ccc1NC(=O)[C@@H]1N[C@@H](CC(C)(C)C)[C@](C#N)(c2ccc(Cl)cc2F)[C@H]1c1cccc(Cl)c1F [idasanutlin]
Procedure, shortened: as §1

alisertib = compound: COc1cc(Nc2ncc3c(n2)-c2ccc(Cl)cc2C(c2c(F)cccc2OC)=NC3)ccc1C(=O)O [alisertib]
Procedure, shortened: as §1

[2] = compound: COc1cc2nc(-c3cc(F)ccc3O)nc(N[C@@H]3CNC[C@H]3C(C)(C)O)c2cc1OC
Procedure, shortened: as §1

gefitinib = compound: COc1cc2ncnc(Nc3ccc(F)c(Cl)c3)c2cc1OCCCN1CCOCC1 [gefitinib]
Procedure, shortened: as §1

[3] = compound: COc1cccc2cc(-c3nc([C@H]4CC[C@H](C(=O)O)CC4)n4ncnc(N)c34)[nH]c12
Procedure, shortened: as §1

lapatinib = compound: CS(=O)(=O)CCNCc1ccc(-c2ccc3ncnc(Nc4ccc(OCc5cccc(F)c5)c(Cl)c4)c3c2)o1 [lapatinib]
Procedure, shortened: as §1

pictilisib = compound: CS(=O)(=O)N1CCN(Cc2cc3nc(-c4cccc5[nH]ncc45)nc(N4CCOCC4)c3s2)CC1 [pictilisib]
Procedure, shortened: as §1

Measured: log2 fold change

DYNC1I2 isoform 5 (UniProt Q13409)
inactive: [1] 0.012 | filanesib 0.003 | zotarolimus 0.025 | idasanutlin 0.025 | alisertib -0.051 | [2] 0 | gefitinib -0.003 | [3] 0.004 | lapatinib 0.021 | pictilisib 0.035

DPH7 (UniProt Q9BTV6)
inactive: [1] -0.028 | filanesib 0.009 | zotarolimus 0.014 | idasanutlin 0.057 | alisertib 0.706 | [2] 0.078 | gefitinib 0.026 | [3] 0.014 | lapatinib -0.109 | pictilisib 0.056

DNAJC11 (UniProt Q9NVH1)
inactive: [1] -0.024 | filanesib -0.046 | zotarolimus 0.003 | idasanutlin -0.047 | alisertib -0.068 | [2] 0.034 | gefitinib 0.029 | [3] 0.013 | lapatinib -0.018 | pictilisib -0.053

DTL (UniProt Q9NZJ0)
inactive: [1] -0.233 | filanesib 0.029 | zotarolimus 0.013 | idasanutlin 0.027 | alisertib 0.009 | [2] 0.058 | gefitinib 0.044 | [3] -0.006 | lapatinib -0.038 | pictilisib 0.014

DPM1 (UniProt O60762)
inactive: [1] -0.029 | filanesib -0.079 | zotarolimus -0.033 | idasanutlin -0.044 | alisertib -0.051 | [2] -0.015 | gefitinib 0.001 | [3] 0.052 | lapatinib -0.011 | pictilisib 0.043

DNMT1 isoform 2 (UniProt P26358)
inactive: [1] -0.023 | filanesib -0.033 | zotarolimus 0.027 | idasanutlin -0.037 | alisertib -0.034 | [2] 0.007 | gefitinib 0.022 | [3] -0.034 | lapatinib 0.005 | pictilisib 0.026

DNAJB11 (UniProt Q9UBS4)
inactive: [1] -0.058 | filanesib 0.013 | zotarolimus -0.081 | idasanutlin 0.008 | alisertib -0.023 | [2] -0.016 | gefitinib 0.021 | [3] 0.038 | lapatinib 0.008 | pictilisib 0.054

DRAP1 isoform 2 (UniProt Q14919)
inactive: [1] -0.007 | filanesib -0.016 | zotarolimus -0.019 | idasanutlin 0.011 | alisertib -0.042 | [2] -0.004 | gefitinib 0.021 | [3] 0.063 | lapatinib 0.002 | pictilisib 0.016

EDC3 (UniProt Q96F86)
inactive: [1] 0.02 | filanesib 0.112 | zotarolimus -0.156 | idasanutlin 0.065 | alisertib 0.02 | [2] 0.046 | gefitinib -0.013 | [3] -0.337 | lapatinib -0.019 | pictilisib -0.187

DNAJB4 (UniProt Q9UDY4)
inactive: [1] -0.037 | filanesib -0.001 | zotarolimus 0.034 | idasanutlin 0.018 | alisertib -0.041 | [2] -0.021 | gefitinib 0.025 | [3] -0.017 | lapatinib 0.015 | pictilisib 0.021

DNAJC1 (UniProt Q96KC8)
inactive: [1] -0.023 | filanesib -0.138 | zotarolimus -0.039 | idasanutlin -0.064 | alisertib 0.001 | [2] -0.17 | gefitinib 0.008 | [3] 0.022 | lapatinib -0.078 | pictilisib 0.017

DNAJC3 (UniProt Q13217)
inactive: [1] -0.039 | filanesib 0.108 | zotarolimus 0.018 | idasanutlin -0.005 | alisertib -0.122 | [2] -0.023 | gefitinib 0.015 | [3] -0.048 | lapatinib 0.03 | pictilisib -0.001

DTNBP1 (UniProt Q96EV8)
inactive: [1] -0.033 | filanesib -0.115 | zotarolimus -0.009 | idasanutlin -0.068 | alisertib -0.003 | [2] 0.004 | gefitinib 0.018 | [3] 0.044 | lapatinib -0.041 | pictilisib 0.073

DPH2 (UniProt Q9BQC3)
inactive: [1] -0.049 | filanesib 0.003 | zotarolimus -0.079 | idasanutlin 0.007 | alisertib 0.021 | [2] 0.033 | gefitinib -0.016 | [3] -0.152 | lapatinib -0.044 | pictilisib -0.061

DTWD2 (UniProt Q8NBA8)
inactive: [1] -0.229 | filanesib 0.307 | zotarolimus -0.036 | idasanutlin -0.073 | alisertib 0.069 | [2] -0.18 | gefitinib -0.159 | [3] 0.002 | lapatinib 0.151 | pictilisib -0.042

ECM1 isoform 4 (UniProt Q16610)
inactive: [1] -0.049 | filanesib -0.005 | zotarolimus -0.093 | idasanutlin 0.019 | alisertib 0.174 | [2] -0.019 | gefitinib 0.037 | [3] 0.011 | lapatinib -0.009 | pictilisib -0.036

DNAJC17 (UniProt Q9NVM6)
inactive: [1] 0.063 | filanesib -0.036 | zotarolimus -0.009 | idasanutlin -0.068 | alisertib -0.061 | [2] 0.026 | gefitinib 0.026 | [3] 0.002 | lapatinib -0.118 | pictilisib 0.121

DPY19L4 (UniProt Q7Z388)
inactive: [1] -0.024 | filanesib -0.073 | zotarolimus -0.045 | idasanutlin -0.151 | alisertib -0.12 | [2] 0.054 | gefitinib -0.152 | [3] 0.072 | lapatinib -0.154 | pictilisib 0.009

DR1 (UniProt Q01658)
inactive: [1] 0.119 | filanesib -0.011 | zotarolimus -0.007 | idasanutlin 0.019 | alisertib -0.002 | [2] -0.002 | gefitinib -0.021 | [3] -0.022 | lapatinib -0.048 | pictilisib 0.004

DRG2 (UniProt P55039)
inactive: [1] -0.004 | filanesib -0.049 | zotarolimus 0.039 | idasanutlin -0.082 | alisertib -0.04 | [2] 0.079 | gefitinib -0.003 | [3] 0.021 | lapatinib -0.057 | pictilisib 0.071

ECI2 (UniProt O75521)
inactive: [1] -0.021 | filanesib -0.066 | zotarolimus 0.007 | idasanutlin -0.072 | alisertib -0.016 | [2] 0.038 | gefitinib 0.006 | [3] 0.031 | lapatinib -0.025 | pictilisib 0.07

DYNC1H1 (UniProt Q14204)
inactive: [1] 0.012 | filanesib -0.057 | zotarolimus 0.023 | idasanutlin -0.055 | alisertib -0.05 | [2] 0.008 | gefitinib 0.006 | [3] -0.001 | lapatinib 0.028 | pictilisib 0.008

EEA1 (UniProt Q15075)
inactive: [1] 0.041 | filanesib -0.012 | zotarolimus -0.028 | idasanutlin 0.017 | alisertib -0.031 | [2] 0.002 | gefitinib 0.007 | [3] 0.036 | lapatinib 0.021 | pictilisib 0

ECE1 (UniProt P42892)
inactive: [1] 0.062 | filanesib -0.045 | zotarolimus -0.01 | idasanutlin 0.029 | alisertib 0.006 | [2] -0.092 | gefitinib -0.098 | [3] -0.007 | lapatinib 0.019 | pictilisib -0.065

DUS3L (UniProt Q96G46)
inactive: [1] 0.069 | filanesib 0.018 | zotarolimus 0.001 | idasanutlin 0.011 | alisertib -0.071 | [2] 0.01 | gefitinib 0.02 | [3] 0.035 | lapatinib -0.037 | pictilisib -0.181

DNAJB1 (UniProt P25685)
inactive: [1] 0.07 | filanesib -0.013 | zotarolimus 0.007 | idasanutlin -0.032 | alisertib -0.063 | [2] 0.046 | gefitinib 0.06 | [3] 0.003 | lapatinib -0.032 | pictilisib 0.005

DTD1 (UniProt Q8TEA8)
inactive: [1] -0.014 | filanesib -0.03 | zotarolimus -0.042 | idasanutlin 0.004 | alisertib -0.063 | [2] 0.075 | gefitinib 0.026 | [3] 0.025 | lapatinib -0.023 | pictilisib 0

DNM1L isoform 6 (UniProt O00429)
inactive: [1] 0.008 | filanesib -0.087 | zotarolimus 0.012 | idasanutlin -0.087 | alisertib -0.05 | [2] 0.034 | gefitinib -0.015 | [3] 0.035 | lapatinib -0.013 | pictilisib 0.067

DNAJB12 (UniProt Q9NXW2)
inactive: [1] 0.023 | filanesib -0.024 | zotarolimus -0.06 | idasanutlin -0.006 | alisertib -0.081 | [2] 0.023 | gefitinib 0.029 | [3] 0.006 | lapatinib -0.033 | pictilisib -0.051

Quoted from the results shown (8 entries):
DR1 (UniProt Q01658)
inactive: [1] 0.119 | filanesib -0.011 | zotarolimus -0.007 | idasanutlin 0.019 | alisertib -0.002 | [2] -0.002 | gefitinib -0.021 | [3] -0.022 | lapatinib -0.048 | pictilisib 0.004

DRG2 (UniProt P55039)
inactive: [1] -0.004 | filanesib -0.049 | zotarolimus 0.039 | idasanutlin -0.082 | alisertib -0.04 | [2] 0.079 | gefitinib -0.003 | [3] 0.021 | lapatinib -0.057 | pictilisib 0.071

ECI2 (UniProt O75521)
inactive: [1] -0.021 | filanesib -0.066 | zotarolimus 0.007 | idasanutlin -0.072 | alisertib -0.016 | [2] 0.038 | gefitinib 0.006 | [3] 0.031 | lapatinib -0.025 | pictilisib 0.07

DYNC1H1 (UniProt Q14204)
inactive: [1] 0.012 | filanesib -0.057 | zotarolimus 0.023 | idasanutlin -0.055 | alisertib -0.05 | [2] 0.008 | gefitinib 0.006 | [3] -0.001 | lapatinib 0.028 | pictilisib 0.008

EEA1 (UniProt Q15075)
inactive: [1] 0.041 | filanesib -0.012 | zotarolimus -0.028 | idasanutlin 0.017 | alisertib -0.031 | [2] 0.002 | gefitinib 0.007 | [3] 0.036 | lapatinib 0.021 | pictilisib 0

ECE1 (UniProt P42892)
inactive: [1] 0.062 | filanesib -0.045 | zotarolimus -0.01 | idasanutlin 0.029 | alisertib 0.006 | [2] -0.092 | gefitinib -0.098 | [3] -0.007 | lapatinib 0.019 | pictilisib -0.065

DUS3L (UniProt Q96G46)
inactive: [1] 0.069 | filanesib 0.018 | zotarolimus 0.001 | idasanutlin 0.011 | alisertib -0.071 | [2] 0.01 | gefitinib 0.02 | [3] 0.035 | lapatinib -0.037 | pictilisib -0.181

DNAJB1 (UniProt P25685)
inactive: [1] 0.07 | filanesib -0.013 | zotarolimus 0.007 | idasanutlin -0.032 | alisertib -0.063 | [2] 0.046 | gefitinib 0.06 | [3] 0.003 | lapatinib -0.032 | pictilisib 0.005
